Measurements from the supplement of paper PMC10735217.
Some of the results follow. Single values are uncertain here, since repeats match poorly.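 Human kidney-derived cells stably carry a construct in which eight TEAD-binding elements drive luciferase, measured by luminescence in a drug-repurposing library screen. A hit is any compound whose signal exceeds the plate mean by more than five robust Z scores.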

Test system: HEK293A TEAD-LUC reporter
Experiment: TEAD-luciferase reporter activity (YAP activation), robust Z score vs plate; higher = stronger YAP/TEAD activation
Details: 24 h

COC(=O)N1CC2(CC2)C[C@H](C(=O)NO)[C@H]1C(=O)N1CCN(c2ccccc2)CC1 [Aderbasib]
TEAD-luciferase reporter activity (compound concentration: 200 nM): inactive: 0.362
TEAD-luciferase reporter activity (compound concentration: 2 uM): inactive: 0.636
TEAD-luciferase reporter activity (compound concentration: 10 uM): inactive: 3.08

CN1CCN2c3ccccc3Cn3cccc3C2C1 (stereo unspecified)
TEAD-luciferase reporter activity (compound concentration: 200 nM): inactive: 0.665
TEAD-luciferase reporter activity (compound concentration: 2 uM): inactive: 0.226
TEAD-luciferase reporter activity (compound concentration: 10 uM): inactive: 3.27

COc1cccc(-c2nc(SC)nc3sc(C(=O)NC(C)(C)C)c(N)c23)c1
TEAD-luciferase reporter activity (compound concentration: 200 nM): inactive: -0.518
TEAD-luciferase reporter activity (compound concentration: 2 uM): inactive: 1.6
TEAD-luciferase reporter activity (compound concentration: 10 uM): inactive: -0.921

O=C(O)c1cc(NCCc2ccc(C(F)(F)F)cc2)ccc1O
TEAD-luciferase reporter activity (compound concentration: 200 nM): inactive: 2.31
TEAD-luciferase reporter activity (compound concentration: 2 uM): inactive: -1.35
TEAD-luciferase reporter activity (compound concentration: 10 uM): inactive: 1.42

O=c1c(-c2ccccc2)c1-c1ccccc1 [diphenylcycloprope]
TEAD-luciferase reporter activity (compound concentration: 200 nM): inactive: -0.442
TEAD-luciferase reporter activity (compound concentration: 10 uM): inactive: 1.28

O=c1c(-c2ccccc2)c1-c1ccccc1 [Diphenylcycloprope]
TEAD-luciferase reporter activity (compound concentration: 2 uM): inactive: -0.853

CC(C)=CCC/C(C)=C/CC/C(C)=C/CSc1ccccc1C(=O)O [salirasib]
TEAD-luciferase reporter activity (compound concentration: 200 nM): inactive: -0.903
TEAD-luciferase reporter activity (compound concentration: 2 uM): inactive: -1.24
TEAD-luciferase reporter activity (compound concentration: 10 uM): inactive: -0.105

CC(C)N1CCN(Cc2cnc(-c3cc(-c4cccc5[nH]ccc45)cc4[nH]ncc34)o2)CC1
TEAD-luciferase reporter activity (compound concentration: 200 nM): inactive: -0.862
TEAD-luciferase reporter activity (compound concentration: 2 uM): inactive: 0.109
TEAD-luciferase reporter activity (compound concentration: 10 uM): inactive: -2.29

Nc1nc(F)nc2c1ncn2[C@@H]1O[C@H](COP(=O)(O)O)[C@@H](O)[C@@H]1O [fludarabine phosphate, EryDel]
TEAD-luciferase reporter activity (compound concentration: 200 nM): inactive: -0.364
TEAD-luciferase reporter activity (compound concentration: 2 uM): inactive: -0.61
TEAD-luciferase reporter activity (compound concentration: 10 uM): inactive: -0.252

CN1C(=O)/C(=C2/C(=O)Nc3ccccc32)c2ccccc21 [Meisoindigo]
TEAD-luciferase reporter activity (compound concentration: 200 nM): inactive: -1.05
TEAD-luciferase reporter activity (compound concentration: 2 uM): inactive: -0.563
TEAD-luciferase reporter activity (compound concentration: 10 uM): inactive: -0.26

CC(C)(C)c1cc(C2CCCCC2)ccc1OC(=O)c1cccnc1
TEAD-luciferase reporter activity (compound concentration: 200 nM): inactive: -2.74
TEAD-luciferase reporter activity (compound concentration: 2 uM): inactive: -0.136
TEAD-luciferase reporter activity (compound concentration: 10 uM): inactive: -0.523

C[C@]12CC[C@H](O)C=C1CC[C@H]1[C@@H]2CC[C@@]2(C)C=CC[C@@H]12 [Aloradine]
TEAD-luciferase reporter activity (compound concentration: 200 nM): inactive: 0.0155
TEAD-luciferase reporter activity (compound concentration: 2 uM): inactive: 2.6
TEAD-luciferase reporter activity (compound concentration: 10 uM): inactive: -0.318

CC/C(=C(/C#N)c1ccc(OCCN(CC)CC)cc1)c1ccc(Cl)cc1
TEAD-luciferase reporter activity (compound concentration: 200 nM): inactive: -1.36
TEAD-luciferase reporter activity (compound concentration: 2 uM): inactive: -0.499
TEAD-luciferase reporter activity (compound concentration: 10 uM): inactive: 1.65

CCCCCOc1ccnc(CSc2nc3ccccc3[nH]2)c1C
TEAD-luciferase reporter activity (compound concentration: 200 nM): inactive: -0.827
TEAD-luciferase reporter activity (compound concentration: 2 uM): inactive: -0.951
TEAD-luciferase reporter activity (compound concentration: 10 uM): inactive: -0.257

COC(=O)Nc1nc2cc(Sc3ccccc3)ccc2[nH]1
TEAD-luciferase reporter activity (compound concentration: 200 nM): inactive: 2.67
TEAD-luciferase reporter activity (compound concentration: 2 uM): inactive: 4.72
TEAD-luciferase reporter activity (compound concentration: 10 uM): inactive: 3.04

O=C([O-])CCCCCCCNC(=O)c1ccccc1O
TEAD-luciferase reporter activity (compound concentration: 200 nM): inactive: -0.143
TEAD-luciferase reporter activity (compound concentration: 2 uM): inactive: -0.909
TEAD-luciferase reporter activity (compound concentration: 10 uM): inactive: -0.687

CCN(CC)CCOC(=O)C(c1ccccc1)C1CCCCC1 (stereo unspecified)
TEAD-luciferase reporter activity (compound concentration: 200 nM): inactive: -0.578
TEAD-luciferase reporter activity (compound concentration: 2 uM): inactive: 3.91
TEAD-luciferase reporter activity (compound concentration: 10 uM): inactive: 1.93

CN(C)CCC=C1c2ccccc2COc2ccc(CC(=O)O)cc21 [olopatadine]
TEAD-luciferase reporter activity (compound concentration: 200 nM): inactive: -0.607
TEAD-luciferase reporter activity (compound concentration: 2 uM): inactive: 0.858
TEAD-luciferase reporter activity (compound concentration: 10 uM): inactive: 0.401

CS(=O)(=O)c1ccc(Oc2cc(F)cc(C#N)c2)c2c1[C@H](O)C(F)(F)C2
TEAD-luciferase reporter activity (compound concentration: 200 nM): inactive: 0.00636
TEAD-luciferase reporter activity (compound concentration: 2 uM): inactive: -0.251
TEAD-luciferase reporter activity (compound concentration: 10 uM): inactive: 1.99

O=C(/C=C/c1ccc(O)c2c1[C@H](C(=O)OC(Cc1ccc(O)c(O)c1)C(=O)O)C(c1ccc(O)c(O)c1)O2)O[C@@H](Cc1ccc(O)c(O)c1)C(=O)O (stereo partly specified) [Salvianolic acid B]
TEAD-luciferase reporter activity (compound concentration: 200 nM): inactive: -3.48
TEAD-luciferase reporter activity (compound concentration: 2 uM): inactive: -1.61
TEAD-luciferase reporter activity (compound concentration: 10 uM): inactive: -0.366

CCCOc1ccc2[nH]c(NC(=O)OC)nc2c1 [Oxibendazole]
TEAD-luciferase reporter activity (compound concentration: 200 nM): inactive: 4.52
TEAD-luciferase reporter activity (compound concentration: 2 uM): inactive: 1.54
TEAD-luciferase reporter activity (compound concentration: 10 uM): inactive: 1.82

CCCC(NC(C)C(=O)N1C(C(=O)O)CC2CCCCC21)C(=O)O (stereo unspecified) [Perindoprilat]
TEAD-luciferase reporter activity (compound concentration: 200 nM): inactive: 2.33
TEAD-luciferase reporter activity (compound concentration: 2 uM): inactive: -1.47
TEAD-luciferase reporter activity (compound concentration: 10 uM): inactive: -1.39

O/N=C/Nc1ccc(N2CCOCC2)c(Cl)c1 [TS-011, Captisol]
TEAD-luciferase reporter activity (compound concentration: 200 nM): inactive: -1.5
TEAD-luciferase reporter activity (compound concentration: 10 uM): inactive: -1.04

O/N=C/Nc1ccc(N2CCOCC2)c(Cl)c1
TEAD-luciferase reporter activity (compound concentration: 2 uM): inactive: -0.24

Cc1nc2ccccn2c(=O)c1CCN1CCC(C(=O)c2ccc(F)cc2)CC1
TEAD-luciferase reporter activity (compound concentration: 200 nM): inactive: 1.09
TEAD-luciferase reporter activity (compound concentration: 2 uM): inactive: 1.23
TEAD-luciferase reporter activity (compound concentration: 10 uM): inactive: 0.161

Cc1cc(=O)oc2ccc(NC(=O)C(=O)O)cc12
TEAD-luciferase reporter activity (compound concentration: 200 nM): inactive: 1.21
TEAD-luciferase reporter activity (compound concentration: 2 uM): inactive: -0.527
TEAD-luciferase reporter activity (compound concentration: 10 uM): inactive: 1.7

CCCCCCCCCCCCCCCC(=O)OC/C=C(C)/C=C/C=C(C)/C=C/C1=C(C)CCCC1(C)C [Retinol palmitate]
TEAD-luciferase reporter activity (compound concentration: 2 uM): inactive: -1.35

CCCCCCCCCCCCCCCC(=O)OC/C=C(C)/C=C/C=C(C)/C=C/C1=C(C)CCCC1(C)C
TEAD-luciferase reporter activity (compound concentration: 200 nM): inactive: -1.33
TEAD-luciferase reporter activity (compound concentration: 10 uM): inactive: 0.51

COc1cccc2c1C(=O)c1c(O)c3c(c(O)c1C2=O)C[C@@](O)(C(C=O)NNC(=O)CCCCCN1C(=O)C=CC1=O)C[C@@H]3O[C@H]1C[C@H](N)[C@H](O)[C@H](C)O1 (stereo partly specified)
TEAD-luciferase reporter activity (compound concentration: 200 nM): inactive: -0.776
TEAD-luciferase reporter activity (compound concentration: 2 uM): inactive: 1.16
TEAD-luciferase reporter activity (compound concentration: 10 uM): inactive: -0.624

CC(C(=O)O)c1ccc2oc(-c3ccc(F)cc3)nc2c1 (stereo unspecified)
TEAD-luciferase reporter activity (compound concentration: 200 nM): inactive: -1.73
TEAD-luciferase reporter activity (compound concentration: 2 uM): inactive: -2.01
TEAD-luciferase reporter activity (compound concentration: 10 uM): inactive: -2.55

CN(CCCNCc1ccc2c(c1)OCO2)c1nc(-n2ccnc2)ns1
TEAD-luciferase reporter activity (compound concentration: 200 nM): inactive: -1.56
TEAD-luciferase reporter activity (compound concentration: 2 uM): inactive: -0.608
TEAD-luciferase reporter activity (compound concentration: 10 uM): inactive: 2.72

CC(C)(CO)NCC(O)c1ccccc1 (stereo unspecified) [fepradinol]
TEAD-luciferase reporter activity (compound concentration: 200 nM): inactive: 2.23
TEAD-luciferase reporter activity (compound concentration: 2 uM): inactive: -2.08
TEAD-luciferase reporter activity (compound concentration: 10 uM): inactive: -0.563

CCN(Cc1ccncc1)C(=O)C(CO)c1ccccc1 (stereo unspecified)
TEAD-luciferase reporter activity (compound concentration: 200 nM): inactive: 0.0817
TEAD-luciferase reporter activity (compound concentration: 10 uM): inactive: 0.868

CCN(Cc1ccncc1)C(=O)C(CO)c1ccccc1 (stereo unspecified) [tropicamide]
TEAD-luciferase reporter activity (compound concentration: 2 uM): inactive: -0.537

COc1cc(O)c2c(=O)oc(C(C)C(=O)O)cc2c1 (stereo unspecified)
TEAD-luciferase reporter activity (compound concentration: 200 nM): inactive: 0.658
TEAD-luciferase reporter activity (compound concentration: 2 uM): inactive: -0.171
TEAD-luciferase reporter activity (compound concentration: 10 uM): inactive: -1.43

C[C@H]1[C@@H](OC(=O)CCC(=O)O)O[C@@H]2OC3(C)CC[C@H]4[C@H](C)CC[C@@H]1[C@@]24OO3 [artesunate, rectal]
TEAD-luciferase reporter activity (compound concentration: 2 uM): inactive: -0.827

C[C@H]1[C@@H](OC(=O)CCC(=O)O)O[C@@H]2OC3(C)CC[C@H]4[C@H](C)CC[C@@H]1[C@@]24OO3 [artesunate, rectal, MMV]
TEAD-luciferase reporter activity (compound concentration: 200 nM): inactive: -0.121
TEAD-luciferase reporter activity (compound concentration: 10 uM): inactive: 1.88
